{"sequences": {"note": "By UniProt entry, the sequences of proteins in these tests, tags left out. Residues count along the entry.", "UniProt Q04206": "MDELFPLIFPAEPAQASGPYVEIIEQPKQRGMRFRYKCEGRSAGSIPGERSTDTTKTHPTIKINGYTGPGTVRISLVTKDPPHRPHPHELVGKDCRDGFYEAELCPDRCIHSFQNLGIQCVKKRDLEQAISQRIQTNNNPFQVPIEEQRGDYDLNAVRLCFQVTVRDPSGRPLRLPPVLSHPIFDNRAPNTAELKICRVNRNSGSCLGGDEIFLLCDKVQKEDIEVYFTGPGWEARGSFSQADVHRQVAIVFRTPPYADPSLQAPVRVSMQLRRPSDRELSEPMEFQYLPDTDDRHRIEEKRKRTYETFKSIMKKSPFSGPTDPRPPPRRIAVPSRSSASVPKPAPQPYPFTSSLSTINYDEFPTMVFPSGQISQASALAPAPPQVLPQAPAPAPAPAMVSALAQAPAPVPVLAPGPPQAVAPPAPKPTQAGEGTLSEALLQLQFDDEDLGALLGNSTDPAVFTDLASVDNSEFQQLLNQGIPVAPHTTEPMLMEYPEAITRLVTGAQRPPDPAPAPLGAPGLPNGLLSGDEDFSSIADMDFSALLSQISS", "UniProt P19838, residues 1-433": "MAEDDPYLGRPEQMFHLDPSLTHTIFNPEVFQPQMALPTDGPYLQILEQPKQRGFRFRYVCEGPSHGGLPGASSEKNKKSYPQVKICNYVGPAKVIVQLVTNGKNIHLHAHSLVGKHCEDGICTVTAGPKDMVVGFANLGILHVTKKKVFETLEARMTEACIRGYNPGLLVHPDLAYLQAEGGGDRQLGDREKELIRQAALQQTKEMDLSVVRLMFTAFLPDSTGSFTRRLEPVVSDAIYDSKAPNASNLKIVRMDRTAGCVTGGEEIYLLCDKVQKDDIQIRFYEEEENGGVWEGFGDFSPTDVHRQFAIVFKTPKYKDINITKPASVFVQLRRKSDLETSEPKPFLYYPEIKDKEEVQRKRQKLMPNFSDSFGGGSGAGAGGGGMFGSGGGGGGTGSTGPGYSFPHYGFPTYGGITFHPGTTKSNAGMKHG"}, "source": "paper PMC4585786", "target": "p65-FLAG (full-length p65) (UniProt Q04206)", "test": "co-IP", "note": "Results are given in words; binding and its absence hold for the method and conditions named. In cells and extracts the contact can be indirect. Some binding calls cover weakened binding; strength is not graded here.", "data": [{"substance": "p50-Myc (from UniProt P19838)", "values": [{"measurement": "binding", "result": "binds"}]}]}
